Patent US8575217B2, “Anti-inflammatory and antioxidant conjugates useful for treating metabolic disorders” (Genmedica Therapeutics SL, priority 2009, dated 2013)
For some assays here: At least one structure is not confirmed: it was looked up by name or label, or the drawing left a doubt. Some of these results come from one statement about several compounds together.

What was measured:
[1] = Cleavage of conjugates in vivo after oral administration to rats
[2] = test system: alloxan-treated cd-1 mice; assay: In vivo beta cell protection model (alloxan)
Experimental: Beta-cell destruction was induced in cd-1 mice after 3 hours of fasting by a single intraperitoneal injection of a freshly prepared solution of alloxan 200 mg/kg (Sigma-Aldrich, San Luis, Mo.) that was dissolved in NaCl 0.9%. Single intraperitoneal drug administration was 1 hour before the alloxan administration. Animals received the different drugs dissolved in PBS pH 7.4, and the animals that not received any drug were injected with the vehicle, in this case PBS pH 7.4. At the end of the treatment, at day 4, animals were killed and the plasma collected and kept at −20° C. until used.
(§1) The circulating glucose concentration was determined by a rapid glucose analyzer (Accu-Chek Aviva; Roche). Plasma triglycerides and non esterified fatty acids were determined with standard colorimetric methods (Biosystems, Barcelona, Spain, and Wako Chemicals, Neuss, Germany, respectively). Plasma insulin concentration was determined by enzyme-linked immunosorbent assay method (CrystalChem, Downers Grove, Ill.). Total pancreas insulin content has been determined after extraction of insulin with a mixture Ethanol (70%)/HCl (0.15 N) from pancreas homogenates.

[3] = test system: db/db mice; assay: Intraperitoneal insulin tolerance test in db/db mice; type: in vivo; conditions: chronic oral 200 mg/kg/day (FIG. 19B)
[4] = test system: db/db mice; assay: Chronic treatment in db/db mice; type: in vivo
[5] = test system: db/db mice; assay: Pancreas insulin content and immunohistochemical analysis of pancreas sections in db/db mice; type: in vivo
Experimental: as §1
The pancreas was removed from each mouse and fixed overnight in a solution of 4% formalin. Fixed tissues were processed routinely for paraffin embedding, and 6-μm sections were prepared and mounted on slides treated with xilane. For detection of insulin, the avidin-biotin complex (ABC) method was performed using Vectastain ABC Kit (Vector Laboratories). Deparaffinized and […] sections were microwaved in citrate buffer (pH 6.0) for antigen retrieval, then were incubated in Tris 100 mM pH 7.4 containing 3% BSA, and 0.01% Triton, to permeabilize and block nonspecific staining, for 30 min, and after that, were incubated with the guinea pig polyclonal anti-insulin antibody (Dako), diluted 1/500 in blocking solution for 2 hours. Negative controls were incubated with blocking solution without the primary antibody. The sections were then incubated with biotinylated antiguinea pig IgG (Vector Laboratories), diluted 1:100 in PBS containing donkey serum 10%, for 45 min. The sections were then incubated with ABC reagent for 45 min, and positive reactions were visualized by incubation with the peroxidase substrate solution containing 3,3′-diaminobenzidine tetrahydrochloride (DAB) (Vector Laboratories). The sections were mounted using Fluoromount G (Electron Microscopy Sciences). Sections were then examined using a Nikon E-600 upright microscope, and microscopic pictures were obtained with a digital camera Olympus DP 72 using Olympus-SIS Cell F software. This program and Fiji Software were used to measure pancreas sections and islets areas.

[6] = test system: db/db mice; assay: Intraperitoneal glucose tolerance test in db/db mice; type: in vivo; conditions: chronic oral 200 mg/kg/day (FIG. 19C)
Experimental: At the fourth week of treatment, a Glucose Tolerance Test was done to the mice after an overnight fasting. The animals received an ip injection of Glucose 0.5 g/kg (Glucosmon 50®). The glycemia levels were determined in blood at the indicated time from the Tail Vein after the Glucose injection using a rapid glucose analyzer.

[7] = test system: Zucker fa/fa rats or ob/ob mice; conditions: 120 mg/kg/day, subcutaneous infusion, 3-4 weeks; cited from earlier work
[8] = chronic oral 200 mg/kg/day (0.5 mmol/kg/day), four weeks (FIG. 22)
[9] = chronic oral, 0.5 mmol/kg/day as lysine salt (FIG. 11)
[10] = chronic oral, four weeks, 0.5 mmol/kg/day (FIG. 24)
[11] = conjugate 0.5 mmol/kg/day and metformin HCl 100 mg/kg/day, four weeks oral (FIG. 25)

## CC(=O)N[C@@H](CSC(=O)c1ccccc1O)C(=O)O [Example 1, (R)-2-acetamido-3-(2-hydroxybenzoylthio)propanoic acid]
[1]
  time to clearance of conjugate and NAC component from the systemic circulation: ≤ 8 h

## CC(=O)N[C@@H](CSC(=O)c1cc(-c2ccc(F)cc2F)ccc1O)C(=O)O [Example 13]
[2]; lysine salts (FIG. 6)
  effect of alloxan on β-cells: reduce the effect of alloxan on β-cells
[2]; lysine salts, i.p., 4-day timecourse (FIG. 6)
  glycemia: statistically-significant reductions in glycemia
[3]
  glycemia during insulin tolerance test (ITT): reduced glycemia during an insulin tolerance (ITT) test
[4]; [8]
  free fatty acids: reduce plasma triglcerides and free fatty acids
  plasma triglycerides: reduce plasma triglcerides and free fatty acids
[4]; chronic oral 200 mg/kg/day (0.5 mmol/kg/day), four weeks (FIGS. 23 and 24)
  plasma insulin levels: increase plasma insulin levels
[4]; chronic oral 200 mg/kg/day, 25 days (FIG. 20)
  weight gain: weight gain improvements were detected
[4]; chronic oral 200 mg/kg/day, 30 days of treatment (FIG. 19)
  glycemia: significantly reduce glycemia
[4]; chronic oral (FIG. 13)
  consumption of food and water: reduced consumption of food and water
[4]; [9]
  free fatty acid: decreases in free fatty acid and triglycerides
  plasma insulin: Statistically-significant increase in plasma insulin
[4]; chronic oral, diflunisal-NAC 0.5, salicylate-NAC 1.5 mmol/kg/day as lysine salt (FIG. 11)
  triglycerides: decreases in free fatty acid and triglycerides
[4]; oral administration, db/db mice (FIG. 21)
  plasma glycemia compared with metformin: statistically-significant lowering of plasma glycemia compared with this conventional Type II Diabetes drug
[4]; oral, 0.5 mmol/kg/day as lysine salt, 35-day course of treatment (FIG. 8)
  glycemia: lower glycemia levels
[1]
  time to clearance of conjugate and NAC component from the systemic circulation: ≤ 8 h
[5]; [10]
  insulin expression in pancreas: increased
  islet size: increased
[5]; [11]
  beta-cell areas in the pancreas (immunohistochemistry): beta-cell areas in the pancreas increased
  islet cell function (ELISA for pancreatic insulin): islet cell function improved
[5]; four weeks of oral administration, 0.5 mmol/kg/day (FIG. 23)
  total pancreatic insulin: increasing both plasma insulin and total pancreatic insulin
[6]
  glycemia during glucose tolerance test: reduced glycemia

## O=C(O)c1ccccc1O [Salicylate]
[7]
  anti-diabetic effects: anti-diabetic effects, reduction in fasting blood glucose, and glucose tolerance improvement
